In publication PMC9197526:
Where a chain is given by its changes, count along the chain named. These are yes or no findings as the source states them, for the method shown. Binding seen in cells or lysates may run through a third protein. Some results given as binding are weak or reduced against the parent protein; the word gives no strength. Where a sequence is shown, tags or fusion partners need not be part of it.

Amino acid sequences for entries named in this document (tags omitted). Residues count along the entry.
UniProt Q13705, residues 19-512: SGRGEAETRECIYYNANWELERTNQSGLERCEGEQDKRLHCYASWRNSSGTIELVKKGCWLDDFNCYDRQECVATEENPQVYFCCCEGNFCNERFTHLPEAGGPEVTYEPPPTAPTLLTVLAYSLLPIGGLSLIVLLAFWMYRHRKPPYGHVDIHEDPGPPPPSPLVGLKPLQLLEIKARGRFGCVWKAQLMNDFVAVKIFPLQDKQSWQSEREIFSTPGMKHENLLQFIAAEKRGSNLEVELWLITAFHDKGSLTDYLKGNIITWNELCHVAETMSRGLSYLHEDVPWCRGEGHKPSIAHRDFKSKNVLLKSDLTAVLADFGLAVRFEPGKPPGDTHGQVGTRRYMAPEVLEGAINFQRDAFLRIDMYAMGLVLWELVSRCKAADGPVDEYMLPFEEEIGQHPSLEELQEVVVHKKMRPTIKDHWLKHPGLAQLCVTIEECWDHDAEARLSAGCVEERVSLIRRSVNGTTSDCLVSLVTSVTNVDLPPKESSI

Assays:
[1] = target: T1, Myc-tagged ACVR1[R206H] (UniProt Q04771); experiment: co-IP; Myc immunoprecipitation (Myc-IP kit) from membrane fractions of transfected W20 cells (HEK293 cells also transfected), 48 h after transfection, serum-free media with or without ACVRIIB-Fc; blots with anti-ACVR1 and anti-HA
T1 sequence: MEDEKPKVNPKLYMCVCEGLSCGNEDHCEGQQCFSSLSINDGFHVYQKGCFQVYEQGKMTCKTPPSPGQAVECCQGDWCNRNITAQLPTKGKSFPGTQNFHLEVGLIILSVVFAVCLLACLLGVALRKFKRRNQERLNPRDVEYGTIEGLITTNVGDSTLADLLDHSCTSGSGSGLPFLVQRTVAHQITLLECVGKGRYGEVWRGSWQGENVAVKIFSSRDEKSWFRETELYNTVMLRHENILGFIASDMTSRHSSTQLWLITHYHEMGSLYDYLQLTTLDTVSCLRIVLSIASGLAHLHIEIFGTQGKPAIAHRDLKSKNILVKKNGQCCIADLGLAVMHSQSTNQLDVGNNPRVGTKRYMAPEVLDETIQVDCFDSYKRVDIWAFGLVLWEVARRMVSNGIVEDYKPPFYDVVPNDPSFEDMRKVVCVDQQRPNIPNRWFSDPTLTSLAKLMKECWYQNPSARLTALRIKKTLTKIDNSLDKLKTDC

[2] = target: T2, Myc-tagged ACVR1 (wild type) (UniProt Q04771); experiment: as above
T2 sequence: T1 sequence with H186R

binding [1]: binds
binding [2]: binds
Substance: HA-tagged ACVR2B (from UniProt Q13705 19-512) (receptor)
